{"source": "PubChem BioAssay AID504808 (Drosophila RNAi Screening Center, 2011)", "assay": "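Fly genes required to hold E2F transcription in check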 (primary screen)", "system": "Drosophila S2 cells", "reagents": "long dsRNA against Drosophila genes", "measurement": "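Firefly luciferase driven by E2F sites, normalised to Renilla luciferase on the same minimal promoter, measured by plate reader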", "reading the numbers": "E2F firefly: higher = more E2F reporter activity; Renilla normaliser: higher = more normaliser reporter signal", "hit rule": "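a knock-down counted as active when the firefly/Renilla E2F signal rose above 50%, a threshold chosen arbitrarily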", "note": "The deposit covers about 21,000 reagents; below is a random part of those that have a named target and a result. Of all reagents, 18 (0.084%) were called active. 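Raw counts without plate normalisation, one of two replicates; the ratio scores behind the calls were not deposited.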 Unmarked entries are inactive. Names joined by + are all predicted targets of the reagent. Not stated in the record: the amount of reagent, the time to read-out."}
{"gene": "Rab40", "PubChem SID": "SID104199612", "E2F firefly, rep 1": 1.18e5, "Renilla normaliser, rep 1": 6078}
{"gene": "CG6978", "PubChem SID": "SID104198201", "E2F firefly, rep 1": 91332, "Renilla normaliser, rep 1": 4018}
{"gene": "CG30345", "PubChem SID": "SID104184936", "E2F firefly, rep 1": 1.40e5, "Renilla normaliser, rep 1": 5174}
{"gene": "Pdcd4", "PubChem SID": "SID104199152", "E2F firefly, rep 1": 1.90e5, "Renilla normaliser, rep 1": 9426}
{"gene": "Tret1-1", "PubChem SID": "SID104186838", "E2F firefly, rep 1": 88672, "Renilla normaliser, rep 1": 4146}
{"gene": "Tret1-1", "PubChem SID": "SID104186840", "E2F firefly, rep 1": 90634, "Renilla normaliser, rep 1": 4332}
{"gene": "BORCS6", "PubChem SID": "SID104188306", "E2F firefly, rep 1": 1.03e5, "Renilla normaliser, rep 1": 3852}
{"gene": "CG12607", "PubChem SID": "SID104188079", "E2F firefly, rep 1": 93520, "Renilla normaliser, rep 1": 4001}
{"gene": "CG12239", "PubChem SID": "SID104197624", "E2F firefly, rep 1": 8087, "Renilla normaliser, rep 1": 892}
{"gene": "mei-P26", "PubChem SID": "SID104197527", "E2F firefly, rep 1": 5956, "Renilla normaliser, rep 1": 784}
{"gene": "dre4", "PubChem SID": "SID104188506", "E2F firefly, rep 1": 92546, "Renilla normaliser, rep 1": 3659}
{"gene": "RpS28b", "PubChem SID": "SID104198050", "E2F firefly, rep 1": 5675, "Renilla normaliser, rep 1": 980}

3 entries from above in another layout.
Rab40 [SID104199612] — E2F firefly, rep 1 = 1.18e5; Renilla normaliser, rep 1 = 6078
CG6978 [SID104198201] — E2F firefly, rep 1 = 91332; Renilla normaliser, rep 1 = 4018
CG30345 [SID104184936] — E2F firefly, rep 1 = 1.40e5; Renilla normaliser, rep 1 = 5174

The results go on:
{"gene": "dpr17", "PubChem SID": "SID104192677", "E2F firefly, rep 1": 76108, "Renilla normaliser, rep 1": 3219}
{"gene": "dpr17", "PubChem SID": "SID104194749", "E2F firefly, rep 1": 1.27e5, "Renilla normaliser, rep 1": 5215}
{"gene": "dpr17", "PubChem SID": "SID104194750", "E2F firefly, rep 1": 1.48e5, "Renilla normaliser, rep 1": 6880}
{"gene": "CG34135 + Nasp", "PubChem SID": "SID104196189", "E2F firefly, rep 1": 1.16e5, "Renilla normaliser, rep 1": 6980}
{"gene": "l(2)10685", "PubChem SID": "SID104180457", "E2F firefly, rep 1": 71883, "Renilla normaliser, rep 1": 3706}
{"gene": "amx", "PubChem SID": "SID104198528", "E2F firefly, rep 1": 95818, "Renilla normaliser, rep 1": 4987}
{"gene": "RPA3", "PubChem SID": "SID104199450", "E2F firefly, rep 1": 1.50e5, "Renilla normaliser, rep 1": 6694}
{"gene": "qsm", "PubChem SID": "SID104185688", "E2F firefly, rep 1": 1.51e5, "Renilla normaliser, rep 1": 7081}
{"gene": "qsm", "PubChem SID": "SID104186185", "E2F firefly, rep 1": 94129, "Renilla normaliser, rep 1": 3975}
{"gene": "Charon", "PubChem SID": "SID104180471", "E2F firefly, rep 1": 80334, "Renilla normaliser, rep 1": 3834}
{"gene": "CG3819", "PubChem SID": "SID104190170", "E2F firefly, rep 1": 1.23e5, "Renilla normaliser, rep 1": 5682}
{"gene": "CG31200", "PubChem SID": "SID104195077", "E2F firefly, rep 1": 1.41e5, "Renilla normaliser, rep 1": 7425}
{"gene": "Oseg2", "PubChem SID": "SID104188135", "E2F firefly, rep 1": 1.03e5, "Renilla normaliser, rep 1": 4584}
{"gene": "CG12343", "PubChem SID": "SID104185927", "E2F firefly, rep 1": 1.32e5, "Renilla normaliser, rep 1": 6185}
{"gene": "ct", "PubChem SID": "SID104198549", "E2F firefly, rep 1": 38878, "Renilla normaliser, rep 1": 3270}
{"gene": "pxb", "PubChem SID": "SID104192902", "E2F firefly, rep 1": 78307, "Renilla normaliser, rep 1": 2827}
{"gene": "pxb", "PubChem SID": "SID104194788", "E2F firefly, rep 1": 1.11e5, "Renilla normaliser, rep 1": 5674}
{"gene": "pxb", "PubChem SID": "SID104194789", "E2F firefly, rep 1": 1.23e5, "Renilla normaliser, rep 1": 6629}
